Assay results reported in PubChem BioAssay AID2685 (National Center for Advancing Translational Sciences (NCATS), 2010).
Some of the results follow. These are further read-outs of the screen, such as a control signal, another cell line or another target. No call is given for them. Compounds called inactive in the main read-out are mostly missing here. Potencies come from curve fits of mixed quality, noted in brackets.

Assay: qHTS Assay for Lipid Storage Modulators in Drosophila S3 Cells;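 for cell number change: cells counted by Cell Tracker Red CMTPX staining in the red channel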
Details: BODIPY lipid droplet fluorescence, 18-24 h; for cell number change: measured here: cell count max response, cells fed with added oleic acid
Summary of the method: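 Drosophila S3 cells got compounds at several concentrations plus oleic acid (400 uM solution). Laser-scanning cytometry with 488 nm excitation read lipid droplets at 500-530 nm and cells at 575-640 nm. Percent activity was relative to 20 uM Triacsin C.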

[1] = measured here: cell number channel AC50, cells fed with added oleic acid
[2] = measured here: lipid fluorescence (Fed channel) AC50, cells fed with added oleic acid

| SMILES | cell number change [%] | AC50 [1] | AC50 [2] |
| --- | --- | --- | --- |
| Cn1ccnc1/C(=N\NC(=O)c1ccccc1)c1cccc([N+](=O)[O-])c1 | 118 | 18.4 µM [rising, single point] | – |
| COc1cc(C(CCN2CCCCC2)c2c(OC)cc(OC)c3c(-c4ccccc4)cc(=O)oc23)cc(OC)c1OC (stereo unspecified) | 5.89 | 0.13 µM [rising, full curve, poor fit] | 2.06 µM [rising, partial curve] |
| CC1(C)CC(=O)C(C=Nc2ccccc2C(=O)O)=C(O)C1 | -13 | – | 32.6 µM [falling, single point] |
| Cc1ccc(S(=O)(=O)N2CCN(C(=O)C(Cc3ccccc3)NC(=O)c3ccccc3)CC2)cc1 (stereo unspecified) | 1.88 | – | 29.1 µM [rising, single point] |
| CC1CCN(C(=O)COC(=O)Cn2cnc3c2c(=O)n(C)c(=O)n3C)CC1 | -16.5 | – | – |
| Cc1ccc(-n2nc(C)c(NC(=O)CCl)c2C)cc1C | -33.8 | 29.1 µM [falling, single point] | 18.4 µM [falling, single point] |
| CN(CCOC(=O)/C=C/c1ccccc1)C(C)(C)C | -9.28 | – | 3.66 µM [falling, full curve, poor fit] |
| O=C(c1cc2c(s1)-c1ccccc1OC2)N1CCN(c2ccccc2)CC1 | 23.1 | – | 9.2 µM [rising, single point] |
| COC(=O)CCC(=O)Nc1nnc(C(F)(F)F)s1 | -10.8 | – | – |
| O=C1/C(=C/c2ccccc2Cl)SC(=S)N1CCC(=O)N1CCCCC1CCO (stereo unspecified) | -10.9 | – | – |
| O=C(Nc1c(F)cccc1F)C1CCN(C(=O)c2cccs2)CC1 | 15.8 | – | – |
| Cc1ccc(NC(=O)Nc2ccc3c(c2)OCO3)cc1F | 24.2 | – | – |
| Cc1ccc(NC(=O)CCC(=O)NNC(=O)/C=C/C(=O)O)c(C)c1 | 31.8 | 6.51 µM [rising, single point] | 2.59 µM [rising, partial curve, poor fit] |
| CCCc1cc(=O)oc2cc(C)cc(OC(C)C(=O)N[C@@H](Cc3c[nH]c4ccccc34)C(=O)O)c12 (stereo partly specified) | 9.93 | – | – |
| CCN(CC)c1ccc(C(=O)Nn2cnc3ccccc3c2=O)cc1 | 50.4 | 20.6 µM [rising, partial curve] | – |
| CCc1noc(C)c1C(=O)Nc1cccc(S(=O)(=O)N2CCCCCC2)c1 | -4.16 | – | – |

| SMILES | cell number change [%] | AC50 [1] | AC50 [2] |
| --- | --- | --- | --- |
| Cc1ccc(OCCC(=O)OCC(=O)Nc2ccc3c(c2)OCCO3)cc1 | 5.22 | – | – |
| CC1(C)CC(=O)C(C2NCCc3ccccc32)=C(O)C1 (stereo unspecified) | -5.9 | – | 1.16 µM [falling, full curve] |
| COc1ccc(OC)c(NC(=O)COc2ccc(S(=O)(=O)N3CCCC3)cc2)c1 | -31.6 | 2.06 µM [falling, partial curve, poor fit] | 5.62 µM [falling, single point] |
| CCNC(=S)NNC(=S)NCc1ccccc1 | 11.5 | 2.31 µM [falling, single point] | – |
| CC(=O)Nc1ccc(Nc2cc(C)nc3c(-c4ccccc4)c(C)nn23)cc1 | 2.87 | – | 0.366 µM [rising, partial curve, poor fit] |
| CNC(=O)c1cc(Nc2nnc(-c3ccc(C)c(S(N)(=O)=O)c3)c3ccccc23)ccc1OC | 60.3 | 29.1 µM [rising, single point] | – |
| CCC(C)NC(=O)c1ccc(NS(=O)(=O)c2ccc3[nH]c(=O)[nH]c3c2)cc1 (stereo unspecified) | 16.2 | – | – |
| O=C(C1CCC(CNS(=O)(=O)c2cccc3cccnc23)CC1)N1CCc2ccccc21 (stereo unspecified) | 8.21 | 3.26 µM [rising, single point] | 6.51 µM [rising, single point] |
| Cc1cc(=O)c(C(=O)O)nn1-c1ccccc1[N+](=O)[O-] | 21 | – | – |
| COc1cccc(C(=O)Nc2cccc(S(=O)(=O)NC3=NCCC3)c2)c1 | 6.51 | – | 0.146 µM [rising, full curve, poor fit] |
| CCN(CC)c1ccc(/C=N/OCC(=O)Nc2cccc(C)c2)cc1 | -11.8 | 6.51 µM [falling, single point] | – |
| Nc1ncnc(Oc2ccccc2F)c1[N+](=O)[O-] | -33.2 | 29.1 µM [falling, single point] | 29.1 µM [falling, single point] |
| C=CCN1C(=O)C(Cc2ccccc2)S/C1=N/N=C/c1cccs1 (stereo unspecified) | 32.3 | 2.06 µM [rising, partial curve, poor fit] | 18.4 µM [rising, partial curve] |
| Cc1cccc(CCNS(=O)(=O)c2ccc3c(c2)NC(=O)CS3)c1 | -2.95 | – | – |
| COc1cc2c(cc1OC)C(C)N(C(=O)c1sc(-c3cnccn3)nc1C)CC2 (stereo unspecified) | 23.7 | – | 29.1 µM [rising, single point] |
| COC(=O)CSC(=S)N1CCCC(C)C1 (stereo unspecified) | -71.2 | 20.6 µM [falling, single point] | 20.6 µM [falling, single point] |

Single records, from the list above. Values in the order: cell number change [%]	AC50 [1]	AC50 [2]
Cn1ccnc1/C(=N\NC(=O)c1ccccc1)c1cccc([N+](=O)[O-])c1 is listed as 118	18.4 µM [rising, single point]	–
Cc1ccc(NC(=O)Nc2ccc3c(c2)OCO3)cc1F is listed as 24.2	–	–
